Measured values as given in PMC9106297, “Structure of a TRAPPII-Rab11 activation intermediate reveals GTPase substrate selection mechanisms” (Science Advances, 2022).
Changes are numbered by the printed parent chain. No constants are given. Whether binding was seen depends on the method and setting. Some binding calls cover weakened binding; strength is not graded here. For some of these results: Tags and fused reporters may be left off the sequences shown. Blank lines part the entries; values can stand above or below the molecule they belong to.

By UniProt entry, the sequences of proteins in these tests, tags left out. Where a name states a change or a piece, a line headed by the entry shows the natural chain unless it says otherwise.
UniProt P36149: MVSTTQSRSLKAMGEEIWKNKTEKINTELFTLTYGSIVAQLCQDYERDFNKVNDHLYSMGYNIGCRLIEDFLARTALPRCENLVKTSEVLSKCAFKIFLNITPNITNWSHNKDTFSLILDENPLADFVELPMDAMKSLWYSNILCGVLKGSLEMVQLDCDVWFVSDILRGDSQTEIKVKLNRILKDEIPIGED
UniProt P46944: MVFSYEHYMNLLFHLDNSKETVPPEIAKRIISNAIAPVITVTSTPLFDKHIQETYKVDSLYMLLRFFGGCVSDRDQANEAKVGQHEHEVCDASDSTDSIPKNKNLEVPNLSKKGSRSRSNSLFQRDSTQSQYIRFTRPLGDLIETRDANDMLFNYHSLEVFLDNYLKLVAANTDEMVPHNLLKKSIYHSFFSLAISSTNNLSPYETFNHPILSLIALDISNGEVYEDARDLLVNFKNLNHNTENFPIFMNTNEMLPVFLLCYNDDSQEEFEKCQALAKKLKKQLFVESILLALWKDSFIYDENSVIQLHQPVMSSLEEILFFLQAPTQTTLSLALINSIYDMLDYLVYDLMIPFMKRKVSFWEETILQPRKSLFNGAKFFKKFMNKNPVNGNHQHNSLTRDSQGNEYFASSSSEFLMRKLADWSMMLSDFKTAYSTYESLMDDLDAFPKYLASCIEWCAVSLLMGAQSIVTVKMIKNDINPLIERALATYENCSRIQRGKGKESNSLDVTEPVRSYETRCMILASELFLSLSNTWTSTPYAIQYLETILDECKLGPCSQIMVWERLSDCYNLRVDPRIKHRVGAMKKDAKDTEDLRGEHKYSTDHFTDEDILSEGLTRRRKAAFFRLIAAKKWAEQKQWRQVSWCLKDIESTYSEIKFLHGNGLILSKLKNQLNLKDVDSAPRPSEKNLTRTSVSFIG
UniProt Q03660: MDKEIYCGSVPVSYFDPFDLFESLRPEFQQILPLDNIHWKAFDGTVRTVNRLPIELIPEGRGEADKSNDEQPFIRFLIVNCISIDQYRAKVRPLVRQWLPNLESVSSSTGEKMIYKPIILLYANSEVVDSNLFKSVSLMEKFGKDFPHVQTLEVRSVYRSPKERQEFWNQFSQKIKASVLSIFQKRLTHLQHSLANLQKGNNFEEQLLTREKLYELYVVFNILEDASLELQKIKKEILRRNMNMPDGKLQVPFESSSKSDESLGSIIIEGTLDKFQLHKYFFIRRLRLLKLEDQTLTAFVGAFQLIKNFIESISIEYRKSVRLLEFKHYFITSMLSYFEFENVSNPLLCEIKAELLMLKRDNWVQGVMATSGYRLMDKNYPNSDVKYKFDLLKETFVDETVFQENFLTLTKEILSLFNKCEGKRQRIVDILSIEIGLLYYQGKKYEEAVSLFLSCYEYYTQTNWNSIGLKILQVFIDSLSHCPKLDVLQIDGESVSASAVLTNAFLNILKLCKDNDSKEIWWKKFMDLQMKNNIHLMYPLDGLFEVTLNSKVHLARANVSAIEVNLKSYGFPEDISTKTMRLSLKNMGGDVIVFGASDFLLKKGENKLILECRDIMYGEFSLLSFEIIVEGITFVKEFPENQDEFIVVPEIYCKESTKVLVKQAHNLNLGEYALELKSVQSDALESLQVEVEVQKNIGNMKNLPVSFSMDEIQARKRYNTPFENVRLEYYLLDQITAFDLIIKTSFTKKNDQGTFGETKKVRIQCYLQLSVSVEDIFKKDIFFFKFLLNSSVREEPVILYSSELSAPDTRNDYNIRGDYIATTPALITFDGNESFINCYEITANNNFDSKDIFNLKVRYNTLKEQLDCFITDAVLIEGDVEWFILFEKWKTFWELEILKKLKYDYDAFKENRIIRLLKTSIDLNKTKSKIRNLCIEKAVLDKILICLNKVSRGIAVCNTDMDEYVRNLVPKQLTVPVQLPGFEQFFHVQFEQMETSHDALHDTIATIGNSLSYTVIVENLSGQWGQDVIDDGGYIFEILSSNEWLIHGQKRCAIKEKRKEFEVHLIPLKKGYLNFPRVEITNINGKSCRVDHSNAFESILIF

Legend:
[1] = target: T1, mRFPmars-Rab11/Ypt32(D129N) with the Fis1 transmembrane domain (nucleotide-free GRab-IT bait, 'wild type') (S. cerevisiae) (UniProt P51996); assay: GRab-IT (GEF-Rab Interaction Test), ectopic localization assay by fluorescence microscopy; living yeast; nucleotide-free mRFPmars-Rab baits anchored on the mitochondrial membrane by the Fis1 transmembrane domain; recruitment of the mNeonGreen-tagged GEF (Trs130 or Trs85) quantified by Manders overlap, >=30 cells; cells grown at 30°C
T1 sequence: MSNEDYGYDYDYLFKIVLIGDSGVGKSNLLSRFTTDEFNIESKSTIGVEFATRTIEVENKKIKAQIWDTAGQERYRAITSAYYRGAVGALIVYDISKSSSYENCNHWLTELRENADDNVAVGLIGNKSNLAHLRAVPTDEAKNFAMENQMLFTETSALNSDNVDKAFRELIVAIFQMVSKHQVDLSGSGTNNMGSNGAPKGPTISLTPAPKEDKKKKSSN

[2] = target: T2, mRFPmars-Rab11/Ypt32(D129N) HVD truncation, residues 208 to 215 removed (GRab-IT bait) (S. cerevisiae) (UniProt P51996); assay: as above
T2 sequence: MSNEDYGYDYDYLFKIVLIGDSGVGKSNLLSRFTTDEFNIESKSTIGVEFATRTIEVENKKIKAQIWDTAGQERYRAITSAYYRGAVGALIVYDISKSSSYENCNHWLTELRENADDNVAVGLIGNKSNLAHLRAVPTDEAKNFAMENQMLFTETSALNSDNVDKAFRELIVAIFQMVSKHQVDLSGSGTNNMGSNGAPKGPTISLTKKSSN

[3] = target: TRAPPII complex (transport protein particle II), endogenous, purified from yeast (S. cerevisiae) (UniProt P36149); assay: cryo-EM structure; TRAPPII purified from yeast, incubated with tenfold molar excess of Rab11/Ypt32-7xHis and calf intestine alkaline phosphatase at 4°C overnight (nucleotide-free Rab), complex purified on Calmodulin Sepharose and by SEC; 10 mM tris (pH 8.0), 150 mM NaCl, 0.1% CHAPS, 1 mM Mg acetate, 1 mM dithiothreitol; single-particle cryo-EM; both purified

binding [1]: no binding
Molecule: TRAPPIII complex in yeast cells, with Trs85-mNeonGreen (from UniProt P46944 1-698; P36149 1-193; Q03630 1-159; P38334 1-175; Q03784 1-219; Q03337 1-283; Q99394 1-268)

binding [2]: no binding
binding [1]: binds
Molecule: TRAPPII complex in yeast cells, with Trs130-mNeonGreen (from UniProt Q03660 1-1102; Q04183 1-1289; P32893 1-560; P32613 1-152; P36149 1-193; Q03630 1-159; P38334 1-175; Q03784 1-219; Q03337 1-283; Q99394 1-268)

binding [3]: binds
B1: Rab11/Ypt32-7xHis (natural protein, S. cerevisiae, UniProt P51996 1-220, looked up)
chain: T1 sequence with N129D
notes: Ypt32 (yeast Rab11 paralog), S. cerevisiae; the C-terminal cysteines (residues 221 and 222) were substituted with the 7xHis tag; Made nucleotide-free with calf intestine alkaline phosphatase for the complex with TRAPPII; also called nucleotide-free Rab11/Ypt32; not shown: GST, N-terminal, cleaved; 7xHis, C-terminal, kept
